Experimental data as given in paper doi:10.1101/2023.05.26.542350.
Results are given in words; binding and its absence hold for the method and conditions named. In cells and extracts the contact can be indirect. Some binding calls cover weakened binding; strength is not graded here.

Amino acid sequences for entries named in this document (tags omitted). A change or cut given only in a name is not applied to a line headed by its entry. Chains listed by the source or under a name are the forms on record and can include a tag or linker.
UniProt Q8IZP0: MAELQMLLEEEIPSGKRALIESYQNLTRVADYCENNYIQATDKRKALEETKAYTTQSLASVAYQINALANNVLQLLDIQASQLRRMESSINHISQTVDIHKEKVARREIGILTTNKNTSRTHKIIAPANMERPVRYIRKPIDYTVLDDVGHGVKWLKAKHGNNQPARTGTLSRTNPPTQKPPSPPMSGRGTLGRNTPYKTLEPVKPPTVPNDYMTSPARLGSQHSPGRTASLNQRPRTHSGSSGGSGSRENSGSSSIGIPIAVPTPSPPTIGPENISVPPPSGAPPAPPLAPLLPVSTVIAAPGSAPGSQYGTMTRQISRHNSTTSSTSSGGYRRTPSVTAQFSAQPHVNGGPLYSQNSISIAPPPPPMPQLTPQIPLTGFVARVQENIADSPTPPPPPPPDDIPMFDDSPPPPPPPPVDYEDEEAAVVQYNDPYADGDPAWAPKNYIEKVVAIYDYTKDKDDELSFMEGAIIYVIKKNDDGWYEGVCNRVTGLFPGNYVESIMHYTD
Androgen Receptor splice variant 7 (ARv7), endogenous (P10275-3, form named): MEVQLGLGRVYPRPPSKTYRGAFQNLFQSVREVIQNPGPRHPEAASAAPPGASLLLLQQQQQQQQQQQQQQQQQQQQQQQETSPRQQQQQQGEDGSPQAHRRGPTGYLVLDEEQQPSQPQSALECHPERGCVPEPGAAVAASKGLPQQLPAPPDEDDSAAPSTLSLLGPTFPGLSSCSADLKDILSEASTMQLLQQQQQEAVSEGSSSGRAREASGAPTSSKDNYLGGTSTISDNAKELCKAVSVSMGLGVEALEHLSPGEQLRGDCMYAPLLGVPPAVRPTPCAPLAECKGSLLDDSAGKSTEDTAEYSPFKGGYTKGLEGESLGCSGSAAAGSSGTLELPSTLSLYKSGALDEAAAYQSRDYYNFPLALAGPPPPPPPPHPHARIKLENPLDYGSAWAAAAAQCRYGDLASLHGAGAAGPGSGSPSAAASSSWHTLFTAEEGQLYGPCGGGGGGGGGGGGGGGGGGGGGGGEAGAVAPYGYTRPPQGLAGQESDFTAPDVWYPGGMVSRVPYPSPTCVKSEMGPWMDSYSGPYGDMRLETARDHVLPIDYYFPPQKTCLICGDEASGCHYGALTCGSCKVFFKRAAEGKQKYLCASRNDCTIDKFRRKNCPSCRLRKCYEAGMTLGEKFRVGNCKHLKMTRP

Columns and labels:
[1] = target: Abelson Interactor 1 (ABI1), endogenous (human (endogenous in VCaP, LAPC4, LNCaP, 22Rv1 and patient tumors)) (UniProt Q8IZP0); assay: proximity ligation
[2] = target: Abelson Interactor 1 (ABI1), endogenous (human (endogenous in VCaP, LAPC4, LNCaP, 22Rv1 and patient tumors)) (UniProt Q8IZP0); assay: proximity ligation; remark: listed apart in the source
[3] = target: Abelson Interactor 1 (ABI1), endogenous (human (endogenous in VCaP, LAPC4, LNCaP, 22Rv1 and patient tumors)) (UniProt Q8IZP0); assay: co-IP

- binding [1]: binds
- binding [2]: binds
- binding [3]: binds
Substance: Androgen Receptor splice variant 7 (ARv7), endogenous (from UniProt P10275-3 1-644)
